Results as given in patent EP1595946A2 (Sugen, Inc., dated 2005).
Results are given in words; binding and its absence hold for the method and conditions named. Binding can be weak; no strength is given. Sequences can lack the tags named with a protein.

Biological target: coiled-coil domain of an SLK isoform (M83780) displayed on T7 phage (human)
Assay: T7 phage display, H441 cDNA library, GST-fused bait

binding: binds
B1: SULU1-coiled-coil2 GST fusion (Construct 1; amino acids 752-898) (protein, not shown: a dimerising Fc or GST)
chain: TILKTLKDEQTRKLAILAEQYEQSINEMMASQALRLDEAQEAECQALRLQLQQEMELLNAYQSKIKMQTEAQHERELQKLEQRVSLRRAHLEQKIEEELAALQKERSERIKNLLERQEREIETFDMESLRMGFGNLVTLDFPKEDYR
